Experimental data as given in PubChem BioAssay AID268 (DTP/NCI, 2004).
The list shows only some results of the screen, not a fair sample: its compounds were picked by chemical class. Not every dose and run of a compound is shown. T/C gives the treated animals as a percentage of the vehicle group. Some entries show no survivor count and are marked so; the dose need not have been tolerated. Schedules are NCI's codes, read here as Q, the interval in days (D) or hours (H), X, the number of doses. Some entries were tested several times; the values are given in rising order.

Tested on: CD2F1 mice, P1798 lymphosarcoma sc, tumor weight T/C
Test: NCI In Vivo Anticancer Drug Screen. Data for tumor model P1798 Lymphosarcoma (subcutaneous) in CD2F1 (CDF1) mice
Conditions: T/C endpoint: mean tumor weight, schedule: Q01DX010 (ip), vehicle: saline, evaluation day not shown, higher T/C = larger tumour
Experimental: The antitumor activity of compounds was measured in mice bearing transplantable tumors. Survival or tumor size were measured and the results are expressed as the measurement made in the treated group (T) divided by the measurement made in the vehicle treated control group (C). The tumor model used in this assay is P1798 Lymphosarcoma (subcutaneous) in CD2F1 (CDF1) mice

SMILES	T/C (dose: 1.25 mg/kg/injection)	T/C (dose: 2.5 mg/kg/injection)	T/C (dose: 0.63 mg/kg/injection)	T/C (dose: 0.5 mg/kg/injection)	T/C (dose: 1.0 mg/kg/injection)	also measured
ClCCNCCCl	–	–	–	–	–	T/C (dose: 9.4 mg/kg/injection): 78 % of control [survivor count not shown]; T/C (dose: 18.8 mg/kg/injection): 14 [survivor count not shown] and 61 % of control [survivor count not shown]; T/C (dose: 37.5 mg/kg/injection): 10 [survivor count not shown] and 36 % of control [survivor count not shown]
ClCCN(CCCl)Cc1nc2ccccc2[nH]1	43 [survivor count not shown] and 72 % of control [survivor count not shown]	40 [survivor count not shown] and 51 % of control [survivor count not shown]	–	–	–	T/C (dose: 5.0 mg/kg/injection): 26 [survivor count not shown] and 31 % of control [survivor count not shown]
O=C(O)CN(CCCl)CCCl	76 [survivor count not shown] and 131 % of control [survivor count not shown]	37 [survivor count not shown] and 56 % of control [survivor count not shown]	73 [survivor count not shown] and 92 % of control [survivor count not shown]	–	–	–
NC(Cc1cccc(N(CCCl)CCCl)c1)C(=O)O (stereo not given)	23 [survivor count not shown] and 50 % of control [survivor count not shown]	13 [survivor count not shown] and 24 % of control [survivor count not shown]	48 [survivor count not shown] and 74 % of control [survivor count not shown]	–	–	–
CC(C(=O)O)N(CCCl)CCCl (stereo not given)	–	–	–	76 % of control [survivor count not shown]	89 [survivor count not shown] and 101 % of control [survivor count not shown]	T/C (dose: 2.0 mg/kg/injection): 39 [survivor count not shown] and 59 % of control [survivor count not shown]; T/C (dose: 4.0 mg/kg/injection): 18 % of control [survivor count not shown]
NC(Cc1ccccc1N(CCCl)CCCl)C(=O)O (stereo not given)	–	–	–	54 % of control [survivor count not shown]	50 % of control [survivor count not shown]	T/C (dose: 0.13 mg/kg/injection): 113 % of control [survivor count not shown]; T/C (dose: 0.25 mg/kg/injection): 112 % of control [survivor count not shown]
